The list shows a part of the results. The main result of the screen is listed elsewhere. These columns were measured beside it and carry no call. Most of these compounds were active or inconclusive in the main read-out, so they are no random draw. The note in brackets gives the kind of curve behind each potency; many fits are weak.

This experiment in a line: qHTS Assay to Find Inhibitors of Chronic Active B-Cell Receptor Signaling. Conditions: ABC-DLBCL IkBa-CBG/CBR reporter, luminescence ratio (green luciferase fused to IkBa over red control in TMD8 lymphoma cells), 4 h. In a few lines: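 TMD8 human ABC-DLBCL cells with doxycycline-inducible IκBα–green luciferase fusion and unfused red luciferase, in 0.5% FBS medium; compounds up to 46 uM, 4 h at 37C. Green/red luminescence ratio, filter-overlap corrected, fitted to concentration-response curves.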
(In general: Quantitative high-throughput screening tests each substance at several concentrations.)

Setting [1] is: measured here: CBR red luminescence, cell number.
The mark [2] stands for this setting: measured here: IkBa-CBG green luminescence.

Usually AC50 stands for the midpoint of the concentration-response curve, whichever way the signal moves. Turning to `CC(C)Oc1ccc(C(=O)N2CCN(c3nc4c(F)cc(F)cc4s3)CC2)cc1`, the concentration at half-maximal activity (AC50) under setting [1] was 35.5 µM [rising, single point].

With `COc1cc(C(c2nnnn2C(C)(C)C)N2CCN(c3nc4ccccc4s3)CC2)ccc1O` (stereo unspecified), the half-maximal activity concentration (AC50) under setting [1] is 11.2 µM [falling, partial curve, poor fit].

Regarding `COc1ccc(C(=O)COC(=O)CCn2nnc(-c3cccc(O)c3OC)n2)cc1`, the AC50 under setting [1] is 17.8 µM [rising, partial curve, poor fit].

On to `O=[N+]([O-])CC(=Nc1ccc(F)cc1)N/N=C\c1oc(O)c2ccccc12`, for which, under setting [1], the concentration at half-maximal activity (AC50) was 12.6 µM [falling, partial curve].

Turning to `O=C(NCc1ccccn1)c1ccc2c(c1)N(Cc1ccccc1)CCS2`, the AC50 under setting [1] was 0.0891 µM [falling, full curve, poor fit].

As to `Cc1[nH]c2ccccc2c1N=Nc1ccc(F)cc1`, the AC50 under setting [1] was 2.82 µM [rising, partial curve, poor fit].

Consider `O=C1C(NS(=O)(=O)c2cccs2)=C(N2CCN(c3cccc(C(F)(F)F)c3)CC2)C(=O)c2ccccc21`, for which the AC50 under setting [1] was 6.51 µM [rising, single point].

For `Cc1[nH]c2ccccc2c1SCC(=O)NNC(=O)Nc1ccc(OC(F)(F)F)cc1`, the AC50 under setting [1] was 17.8 µM [falling, partial curve, poor fit].

For the molecule `O=C(Nc1cccc2cccnc12)c1ccc(Br)cc1Br`, the half-maximal activity concentration (AC50) under setting [1] was 8.91 µM [rising, partial curve].

As to `CCC(=O)N1CCCc2cc(S(=O)(=O)N3CCN(c4ccccc4F)CC3)ccc21`, the AC50 under setting [1] is 23.1 µM [falling, single point].

With `Cc1csc(NC(=O)c2ccc(S(=O)(=O)N3CCN(C)CC3)cc2)n1`, the AC50 under setting [1] was 5.62 µM [falling, partial curve, poor fit].

For the molecule `c1ccc(OCCn2c(-c3ccco3)nc3ccccc32)cc1`, the AC50 under setting [1] was 6.31 µM [falling, partial curve].

As for `CCCCn1nnnc1SCC(=O)Nc1ccc(N(C)C)cc1`, the AC50 under setting [1] is 0.146 µM [rising, full curve, poor fit].

Consider `COc1ccc(C2OC(=O)CC2C(=O)NCc2ccccc2Cl)cc1OC` (stereo unspecified), for which the AC50 under setting [1] is 12.6 µM [rising, partial curve, poor fit].

As for `CCn1cnc2scc(-c3ccc(C)c(C)c3)c2c1=O`, the AC50 under setting [1] was 20 µM [falling, partial curve, poor fit].

As for `COC(=O)c1cc2ccccc2n1Cc1ccc(Cl)nc1`, the AC50 under setting [1] is 0.398 µM [rising, full curve, poor fit].

With `Cn1c(OCc2ccco2)nc2c1c(=O)n(Cc1ccc(Cl)c(Cl)c1)c(=O)n2C`, the half-maximal activity concentration (AC50) under setting [1] is 25.9 µM [falling, single point].

On to `N#Cc1c(Nc2ccc(F)cc2)sc(C(=O)c2ccccc2)c1N`, for which the half-maximal activity concentration (AC50) under setting [1] was 1.03 µM [rising, partial curve, poor fit].

For `Cc1nc2cc(N3CCOCC3)c(NC(=O)C3CC3)cc2c(=O)n1Cc1ccccc1`, under setting [1], the half-maximal activity concentration (AC50) is 35.5 µM [rising, single point].

As for `Cc1cc(C)c(S(=O)(=O)/N=C2\C=C(Nc3ccc(C(=O)O)cc3)C(=O)c3ccccc32)c(C)c1`, under setting [1], the concentration at half-maximal activity (AC50) is 1.78 µM [falling, full curve].

Take `COc1ccc(-c2nnn(CC(=O)N(CC(=O)NC3CCCC3)c3cccc(C)c3)n2)cc1OC`: under setting [1], the concentration at half-maximal activity (AC50) was 6.31 µM [falling, single point].

In the case of `c1ccc(-c2cc3nccc(-c4ccccn4)n3n2)cc1`, the half-maximal activity concentration (AC50) under setting [1] was 29.1 µM [falling, single point].

With `CCN(CC)CCN1C(=O)C(=O)/C(=C(/O)c2c(C)[nH]c(C(=O)OC)c2C)C1c1cccc(OC)c1` (stereo unspecified), under setting [1], the concentration at half-maximal activity (AC50) was 12.6 µM [falling, partial curve].

`[N-]=C=C1C(=S)NC(=O)[C@H]([n+]2ccccc2)[C@H]1c1ccc(Cl)cc1`: the AC50 under setting [1] was 0.282 µM [falling, full curve, poor fit].

For the molecule `Cn1c(=O)c2c(ncn2CC(=O)OCC(=O)Nc2ccc(F)cc2Cl)n(C)c1=O`, the AC50 under setting [1] is 3.26 µM [rising, full curve, poor fit].

Take `Cn1nnc2cc(C(=O)N3CCC(c4ccccc4)C3)ccc21` (stereo unspecified): the half-maximal activity concentration (AC50) under setting [1] was 5.8 µM [rising, full curve, poor fit].

In the case of `CCOc1cc(/C=N\Nc2ncc(F)c(N3CCOCC3)n2)ccc1Oc1nc(Cl)ncc1F`, the AC50 under setting [1] was 20 µM [falling, single point].

With `CN(C)S(=O)(=O)Oc1ccsc1C(=O)Nc1ccc(C(F)(F)F)cc1`, under setting [1], the half-maximal activity concentration (AC50) was 1 µM [rising, partial curve, poor fit].

Take `CCNC(=S)NNC(=O)c1csc2ccccc12`: the concentration at half-maximal activity (AC50) under setting [1] is 15.8 µM [falling, single point].

Turning to `Cc1cc(C)c2c(N)c(C(=O)NN3CC(=O)N(c4cccc(Cl)c4)CC3=O)sc2n1`, the half-maximal activity concentration (AC50) under setting [1] is 7.94 µM [falling, partial curve, poor fit].

For `COC(=O)COc1cccc(/C=N/NC(=O)CCSc2ccccc2)c1`, the AC50 under setting [1] is 35.5 µM [falling, single point].

With `CC(C)c1ccc(-c2nc3c([nH]2)c(=O)n(C)c(=O)n3C)cc1`, the AC50 under setting [1] is 0.058 µM [falling, full curve, poor fit].

`Cc1cccc(NC(=S)NC(=O)c2cccs2)n1`: the AC50 is 0.1 µM [rising, full curve, poor fit] under setting [1] and 28.2 µM [falling, single point] under setting [2].

Consider `O=C(Nc1cccc(O)c1)C(=O)Nc1ccccn1`, for which the AC50 under setting [1] is 0.291 µM [falling, full curve].

Take `CCNc1nc(CSc2ccccc2)nc2sc(C)c(C)c12`: the AC50 under setting [1] is 1.84 µM [rising, partial curve, poor fit].

With `CCOC(=O)C1C(=O)NC(c2ccccc2)=NC1c1cccc(Br)c1` (stereo unspecified), the half-maximal activity concentration (AC50) under setting [1] was 0.631 µM [rising, full curve, poor fit].

As for `O=C(NCCc1ccccc1)c1ccco1`, the AC50 under setting [1] was 29.1 µM [falling, single point].

Turning to `O=C(NCCOc1ccccc1Cl)C(=O)c1c[nH]c2ccccc12`, under setting [1], the half-maximal activity concentration (AC50) was 35.5 µM [falling, single point].

`CC(=O)C1=C(O)C(=O)N(CC(=O)O)C1c1ccccc1Cl` (stereo unspecified): the AC50 under setting [1] was 16.4 µM [falling, single point].

As to `Cc1noc(C)c1COc1cccc(C(=O)Nc2ccc3c(c2)OCO3)c1`, under setting [1], the AC50 is 7.94 µM [falling, partial curve, poor fit].

For the molecule `CC1=C(CCN2CCN(C3CCCC3)C(CCO)C2)C(C)(C)CCC1` (stereo unspecified), under setting [1], the AC50 is 7.08 µM [rising, partial curve, poor fit].

As for `O=C(Nc1ccc(Oc2ccc(C(=O)O)c(C(=O)O)c2)cc1)c1cccs1`, the AC50 under setting [1] is 35.5 µM [falling, single point].

As to `O=C(c1cc2c([nH]c1=O)CCCC2)N1CCc2c([nH]c3ccccc23)C1c1ccccc1F` (stereo unspecified), the AC50 under setting [1] was 6.31 µM [falling, single point].

Consider `O=C(CSc1nncc2ccccc12)Nc1cccc(C(=O)O)c1`, for which the AC50 under setting [1] is 7.08 µM [falling, full curve].

For `OCCC1CN(Cc2cccn2-c2ccccn2)CCN1Cc1ccccc1` (stereo unspecified), under setting [1], the half-maximal activity concentration (AC50) is 6.31 µM [rising, single point].

In the case of `Cc1cnn(CCC(=O)NNC(=S)Nc2ccc(F)cc2)c1`, the half-maximal activity concentration (AC50) by setting is: under setting [1], 35.5 µM [rising, single point]; under setting [2], 17.8 µM [falling, single point].

Take `O=C(NCc1ccc2c(c1)OCO2)c1ccc(S(=O)(=O)C(F)F)cc1`: under setting [1], the half-maximal activity concentration (AC50) is 4.47 µM [falling, partial curve, poor fit].

In the case of `Clc1ccc(/C=N/Nc2ccccn2)cc1`, under setting [1], the AC50 is 0.562 µM [rising, full curve, poor fit].

On to `C[n+]1c2n(c3ccccc31)N=C(c1ccc(Br)cc1)CS2`, for which the AC50 under setting [1] was 29.1 µM [rising, single point].

Turning to `O=C(Cn1cnc2ccccc2c1=O)c1ccc2c(c1)OCCO2`, the AC50 under setting [1] was 0.447 µM [falling, full curve, poor fit].

Consider `CCN(CC)CC(=O)NC1CC(C)(C)Cc2c1cnn2-c1ccc(F)cc1` (stereo unspecified), for which the concentration at half-maximal activity (AC50) under setting [1] is 2 µM [rising, partial curve, poor fit].

In the case of `O=C(Nc1ccccc1)N1CCN(c2ncccn2)CC1`, the AC50 under setting [1] is 18.4 µM [falling, partial curve].

On to `CCOC(=O)c1cc2c(n(-c3ccccc3)c1=O)CC(C)(C)CC2=O`, for which, under setting [1], the concentration at half-maximal activity (AC50) is 29.1 µM [falling, partial curve, poor fit].

Take `O=C(COC(=O)c1cc([N+](=O)[O-])ccc1N1CCOCC1)Nc1ccccc1OC(F)F`: under setting [1], the AC50 was 0.411 µM [rising, full curve, poor fit].

On to `CCN(CCn1cccn1)C(=O)CCc1nnc(C2(c3ccc(Cl)cc3)CCC2)o1`, for which, under setting [1], the concentration at half-maximal activity (AC50) was 4.47 µM [rising, full curve].

With `O=C(OCC(=O)c1cccs1)c1ccc(NC(=O)c2ccco2)cc1`, the concentration at half-maximal activity (AC50) under setting [1] was 6.51 µM [rising, single point].

`COc1ccc(/C=N/NC(=O)CNS(=O)(=O)c2ccc(C)cc2)cc1`: the concentration at half-maximal activity (AC50) under setting [1] was 0.1 µM [rising, full curve, poor fit].

On to `COC(=O)c1ccc(C)c(NC(=O)c2ccc(Cl)c([N+](=O)[O-])c2)c1`, for which, under setting [1], the half-maximal activity concentration (AC50) was 8.2 µM [rising, partial curve, poor fit].

Consider `CCOC(=O)c1cc(-c2ccco2)nn1-c1ccc(C)cc1`, for which the AC50 under setting [1] is 11.2 µM [rising, partial curve].

On to `COc1ccc(/C=N\NC(=O)c2ccc(=O)[nH]n2)cc1O`, for which the concentration at half-maximal activity (AC50) under setting [1] was 29.1 µM [falling, single point].

Turning to `CCn1cc(C(=O)NCc2cccnc2)c2cc(OC)c(OC)cc2c1=O`, under setting [1], the AC50 is 6.51 µM [rising, single point].

As for `S=C(Nc1ccccn1)Nc1ccccc1Cl`, the AC50 reads like this: under setting [1], 11.2 µM [rising, single point]; under setting [2], 12.6 µM [falling, partial curve, poor fit].

Take `Cn1c(SCC(=O)N2CCc3ccccc3C2)nnc1-c1ccncc1`: the AC50 under setting [1] is 6.51 µM [rising, single point].

The record behind these values is PubChem BioAssay AID493014 (National Center for Advancing Translational Sciences (NCATS), 2011).
